Assay results from publication PMC5484684, “Intracellular targeting of annexin A2 inhibits tumor cell adhesion, migration, and in vivo grafting” (Scientific Reports, 2017).
These are yes or no findings as the source states them, for the method shown. For some of these results: Where a sequence is shown, tags or fusion partners need not be part of it.

Chains of the proteins cited; added tags and fusions are not shown.
UniProt P08758: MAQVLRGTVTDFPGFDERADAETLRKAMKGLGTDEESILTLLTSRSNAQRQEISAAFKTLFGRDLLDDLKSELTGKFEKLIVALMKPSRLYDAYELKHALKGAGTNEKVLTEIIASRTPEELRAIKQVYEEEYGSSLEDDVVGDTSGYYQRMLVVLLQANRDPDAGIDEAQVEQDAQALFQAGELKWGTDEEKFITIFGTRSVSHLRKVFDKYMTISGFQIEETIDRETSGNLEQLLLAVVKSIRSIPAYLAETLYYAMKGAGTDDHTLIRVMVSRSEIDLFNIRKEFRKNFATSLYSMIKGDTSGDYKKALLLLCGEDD

Columns and labels:
Assay in all cases: phage binding assay; recombinant proteins in 96-well plates; iPhage input 10^9 TU/well; bound phage particles quantified by bacterial infection; TU normalised on an insertless iPhage; both purified
[1] = molecular target: T1, GST-fused recombinant LASP1 (UniProt Q14847)
T1 sequence: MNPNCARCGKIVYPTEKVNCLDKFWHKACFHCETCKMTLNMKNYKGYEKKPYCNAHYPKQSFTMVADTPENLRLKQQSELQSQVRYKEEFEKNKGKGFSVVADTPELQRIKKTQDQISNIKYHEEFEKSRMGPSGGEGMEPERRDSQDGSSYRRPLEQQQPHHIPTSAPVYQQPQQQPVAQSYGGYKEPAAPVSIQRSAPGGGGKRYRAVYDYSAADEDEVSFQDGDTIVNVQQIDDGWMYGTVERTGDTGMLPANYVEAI

[2] = molecular target: T2, human recombinant annexin A1 (human) (UniProt P04083)
T2 sequence: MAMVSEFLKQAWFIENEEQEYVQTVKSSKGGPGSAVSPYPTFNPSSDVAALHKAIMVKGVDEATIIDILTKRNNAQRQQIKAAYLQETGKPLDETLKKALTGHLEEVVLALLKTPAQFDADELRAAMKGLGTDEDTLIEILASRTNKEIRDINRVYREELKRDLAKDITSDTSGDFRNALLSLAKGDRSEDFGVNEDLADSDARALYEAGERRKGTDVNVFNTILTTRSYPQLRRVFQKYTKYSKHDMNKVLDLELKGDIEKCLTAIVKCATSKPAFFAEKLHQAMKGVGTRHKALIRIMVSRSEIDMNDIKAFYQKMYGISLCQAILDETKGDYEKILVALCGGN

[3] = molecular target: T3, human recombinant annexin A4 (human) (UniProt P09525)
T3 sequence: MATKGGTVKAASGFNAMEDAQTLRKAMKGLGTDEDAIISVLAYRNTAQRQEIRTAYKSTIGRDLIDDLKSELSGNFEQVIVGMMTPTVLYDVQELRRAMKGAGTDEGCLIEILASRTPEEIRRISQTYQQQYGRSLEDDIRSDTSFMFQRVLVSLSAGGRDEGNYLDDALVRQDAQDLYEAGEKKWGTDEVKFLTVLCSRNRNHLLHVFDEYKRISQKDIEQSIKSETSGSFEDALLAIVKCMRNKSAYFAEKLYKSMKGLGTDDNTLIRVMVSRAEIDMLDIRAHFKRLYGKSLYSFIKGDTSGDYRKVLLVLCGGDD

[4] = molecular target: human recombinant annexin A5 (human) (UniProt P08758)

Measured: binding

LGRFYAASG […-displaying iPhage]
no binding: [1] | [2] | [3] | [4]
